Paper PMC5996148
Some of the results follow. For some assays here: Construct or isoform of the protein are uncertain.

Legend:
Test in all cases: protein microarray (ProtoArray v5.0), streptavidin-Alexa Fluor 647
Conditions in all cases: 3'-biotin; 20 mM Tris (pH 7.5), 5 mM MgCl2, 100 mM KCl, 0.1% Tween-20, A/T-rich and random oligonucleotide blockers; temperature not stated; high values mean tight binding
[1] = tested on: Autophagy-related protein 3 (human)
[2] = tested on: Autophagy-related protein 7 (human)
[3] = tested on: B melanoma antigen 3 (human)
B3GALT4 (human) = tested on: B3GALT4 (human)
B3GALTL (human) = tested on: B3GALTL (human)
B3GNT1 (human) = tested on: B3GNT1 (human)
B3GNT3 = biological target: T1, B3GNT3 (UniProt Q9Y2A9)
T1 sequence: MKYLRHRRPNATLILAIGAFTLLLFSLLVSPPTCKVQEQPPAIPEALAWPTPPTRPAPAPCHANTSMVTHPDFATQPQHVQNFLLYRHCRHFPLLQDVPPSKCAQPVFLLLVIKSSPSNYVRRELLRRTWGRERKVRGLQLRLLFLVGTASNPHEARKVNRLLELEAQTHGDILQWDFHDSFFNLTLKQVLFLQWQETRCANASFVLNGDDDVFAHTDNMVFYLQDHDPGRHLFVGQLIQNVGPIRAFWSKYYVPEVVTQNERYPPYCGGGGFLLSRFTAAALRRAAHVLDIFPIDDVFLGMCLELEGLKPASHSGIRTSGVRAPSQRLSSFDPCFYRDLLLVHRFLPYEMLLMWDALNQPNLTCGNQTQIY

BAG2 (human) = tested on: BAG2 (human)
BATF2 = biological target: T2, BATF2 (UniProt Q8N1L9)
T2 sequence: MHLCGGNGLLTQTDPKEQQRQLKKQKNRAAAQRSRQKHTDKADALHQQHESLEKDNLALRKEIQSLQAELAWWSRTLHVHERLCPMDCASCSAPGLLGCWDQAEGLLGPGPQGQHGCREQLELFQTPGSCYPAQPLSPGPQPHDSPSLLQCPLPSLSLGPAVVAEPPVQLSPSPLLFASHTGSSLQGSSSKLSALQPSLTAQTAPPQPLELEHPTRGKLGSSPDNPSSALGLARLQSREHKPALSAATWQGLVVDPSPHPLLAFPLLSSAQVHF

BBOX1 (human) = tested on: BBOX1 (human)
BBS2 (human) = tested on: BBS2 (human)
BBS7 (human) = tested on: BBS7 (human)
BCAR3 (human) = tested on: BCAR3 (human)
BCAS2 (human) = tested on: BCAS2 (human)
BCKDK = BCKDK (UniProt O14874)
BCL10 = biological target: T3, BCL10 (UniProt O95999)
T3 sequence: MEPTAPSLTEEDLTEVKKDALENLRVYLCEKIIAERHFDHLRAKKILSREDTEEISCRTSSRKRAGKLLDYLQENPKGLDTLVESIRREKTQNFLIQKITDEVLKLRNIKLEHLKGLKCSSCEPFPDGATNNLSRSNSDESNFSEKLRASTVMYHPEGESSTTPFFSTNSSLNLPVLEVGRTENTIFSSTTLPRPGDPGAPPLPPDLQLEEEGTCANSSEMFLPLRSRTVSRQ

BCL2A1 (human) = tested on: BCL2A1 (human)
BCL2L11 (human) = tested on: BCL2L11 (human)
BCL2L13 (human) = tested on: BCL2L13 (human)
BEGAIN (human) = tested on: BEGAIN (human)

Sequence: GGGAGGCTGAGGCAGG [G4-1 biotinylated (PQS2)]
- binding signal [1]: -0.364 z-score
- binding signal [2]: -0.321 z-score
- binding signal [3]: -0.343 z-score
- binding signal (B3GALT4 (human)): -0.343 z-score
- binding signal (B3GALTL (human)): -0.271 z-score
- binding signal (B3GNT1 (human)): -0.338 z-score
- binding signal (B3GNT3): -0.255 z-score
- binding signal (BAG2 (human)): -0.323 z-score
- binding signal (BATF2): -0.343 z-score
- binding signal (BBOX1 (human)): -0.327 z-score
- binding signal (BBS2 (human)): -0.33 z-score
- binding signal (BBS7 (human)): -0.326 z-score
- binding signal (BCAR3 (human)): -0.343 z-score
- binding signal (BCAS2 (human)): -0.294 z-score
- binding signal (BCKDK): -0.303 z-score
- binding signal (BCL10): -0.323 z-score
- binding signal (BCL2A1 (human)): -0.329 z-score
- binding signal (BCL2L11 (human)): -0.375 z-score
- binding signal (BCL2L13 (human)): -0.357 z-score
- binding signal (BEGAIN (human)): -0.312 z-score
